{"source": "PubChem BioAssay AID1259405 (NCATS, 2018)", "screen": "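Silenced genes that increase secreted GFP made by CHO cells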 (primary screen)", "system": "Chinese hamster CHO-K1 ovary cells with stable secreted eGFP expression", "knock-down reagent": "single siRNA against mouse genes, 0.8 pmol siRNA per well (2 µl of 400 nM stock)", "time to read-out": "3 days", "detection": "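Percent of the per-plate non-targeting control median for intracellular GFP per well by laser scanning cytometry and for cell viability by ATP luminescence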", "reading the numbers": "GFP, % of control: higher = more GFP per well, higher productivity; viability (ATP), % of control: higher = more viable cells (more ATP)", "call rule": "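Called active when intracellular GFP, relative to negative control, is at or above 120%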", "note": "The whole screen tested about 50,000 reagents; this is a part drawn at random. About 4,000 of them (8%) were called active. 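Mouse siRNA library applied to hamster cells; one well for each siRNA.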 Reagents against one gene are numbered here. No sequences are given here."}
{"gene symbol": "Nus1", "reagent": 1, "GFP, % of control": 118, "viability (ATP), % of control": 119, "outcome": "inactive"}
{"gene symbol": "Nus1", "reagent": 2, "GFP, % of control": 87, "viability (ATP), % of control": 69.1, "outcome": "inactive"}
{"gene symbol": "Nus1", "reagent": 3, "GFP, % of control": 151, "viability (ATP), % of control": 106, "outcome": "active"}
{"gene symbol": "Tnfaip8l1", "reagent": 1, "GFP, % of control": 70.8, "viability (ATP), % of control": 74.2, "outcome": "inactive"}
{"gene symbol": "Tnfaip8l1", "reagent": 2, "GFP, % of control": 35.5, "viability (ATP), % of control": 24.8, "outcome": "inactive"}
{"gene symbol": "Tnfaip8l1", "reagent": 3, "GFP, % of control": 86.6, "viability (ATP), % of control": 60.1, "outcome": "inactive"}
{"gene symbol": "Pax6", "reagent": 1, "GFP, % of control": 112, "viability (ATP), % of control": 59, "outcome": "inactive"}
{"gene symbol": "Pax6", "reagent": 2, "GFP, % of control": 120, "viability (ATP), % of control": 68.8, "outcome": "active"}
{"gene symbol": "Pax6", "reagent": 3, "GFP, % of control": 125, "viability (ATP), % of control": 115, "outcome": "active"}

Continued; the last 3 above are carried over.
{"gene symbol": "Pax6", "reagent": 1, "GFP, % of control": 112, "viability (ATP), % of control": 59, "outcome": "inactive"}
{"gene symbol": "Pax6", "reagent": 2, "GFP, % of control": 120, "viability (ATP), % of control": 68.8, "outcome": "active"}
{"gene symbol": "Pax6", "reagent": 3, "GFP, % of control": 125, "viability (ATP), % of control": 115, "outcome": "active"}
{"gene symbol": "Or7g29", "reagent": 1, "GFP, % of control": 71.4, "viability (ATP), % of control": 75.4, "outcome": "inactive"}
{"gene symbol": "Or7g29", "reagent": 2, "GFP, % of control": 36.6, "viability (ATP), % of control": 36.6, "outcome": "inactive"}
{"gene symbol": "Or7g29", "reagent": 3, "GFP, % of control": 39.1, "viability (ATP), % of control": 68.1, "outcome": "inactive"}
{"gene symbol": "Nav2", "reagent": 1, "GFP, % of control": 54.8, "viability (ATP), % of control": 43.5, "outcome": "inactive"}
{"gene symbol": "Nav2", "reagent": 2, "GFP, % of control": 64.3, "viability (ATP), % of control": 73.8, "outcome": "inactive"}
{"gene symbol": "Nav2", "reagent": 3, "GFP, % of control": 66.1, "viability (ATP), % of control": 79, "outcome": "inactive"}
{"gene symbol": "Dusp11", "reagent": 1, "GFP, % of control": 74, "viability (ATP), % of control": 77.8, "outcome": "inactive"}
{"gene symbol": "Dusp11", "reagent": 2, "GFP, % of control": 79.2, "viability (ATP), % of control": 47.7, "outcome": "inactive"}
{"gene symbol": "Dusp11", "reagent": 3, "GFP, % of control": 98.4, "viability (ATP), % of control": 64.3, "outcome": "inactive"}
{"gene symbol": "Uevld", "reagent": 1, "GFP, % of control": 82.8, "viability (ATP), % of control": 45, "outcome": "inactive"}
{"gene symbol": "Uevld", "reagent": 2, "GFP, % of control": 77.6, "viability (ATP), % of control": 101, "outcome": "inactive"}
{"gene symbol": "Uevld", "reagent": 3, "GFP, % of control": 49.4, "viability (ATP), % of control": 44.1, "outcome": "inactive"}
{"gene symbol": "Vdac3", "reagent": 1, "GFP, % of control": 88.3, "viability (ATP), % of control": 78.9, "outcome": "inactive"}
{"gene symbol": "Vdac3", "reagent": 2, "GFP, % of control": 50.9, "viability (ATP), % of control": 57.5, "outcome": "inactive"}
{"gene symbol": "Vdac3", "reagent": 3, "GFP, % of control": 90.8, "viability (ATP), % of control": 73.2, "outcome": "inactive"}
{"gene symbol": "Dhrs7b", "reagent": 1, "GFP, % of control": 77.6, "viability (ATP), % of control": 47.9, "outcome": "inactive"}
{"gene symbol": "Dhrs7b", "reagent": 2, "GFP, % of control": 80.6, "viability (ATP), % of control": 63.9, "outcome": "inactive"}
{"gene symbol": "Dhrs7b", "reagent": 3, "GFP, % of control": 76.3, "viability (ATP), % of control": 69.8, "outcome": "inactive"}
